Test results: patent publication US20080312209A1, “Piperazine Heteroaryl Derivatives as Gpr38 Agonists” (Glaxo Group Limited, priority 2005, published 2008)
Where a name gives a salt, the structure may show the parent alone. Some entries share one result that the patent states for a list of compounds.

By UniProt entry, the sequences of proteins in these tests, tags left out. Where a name states a change or a piece, a line headed by the entry shows the natural chain unless it says otherwise.
UniProt O43193: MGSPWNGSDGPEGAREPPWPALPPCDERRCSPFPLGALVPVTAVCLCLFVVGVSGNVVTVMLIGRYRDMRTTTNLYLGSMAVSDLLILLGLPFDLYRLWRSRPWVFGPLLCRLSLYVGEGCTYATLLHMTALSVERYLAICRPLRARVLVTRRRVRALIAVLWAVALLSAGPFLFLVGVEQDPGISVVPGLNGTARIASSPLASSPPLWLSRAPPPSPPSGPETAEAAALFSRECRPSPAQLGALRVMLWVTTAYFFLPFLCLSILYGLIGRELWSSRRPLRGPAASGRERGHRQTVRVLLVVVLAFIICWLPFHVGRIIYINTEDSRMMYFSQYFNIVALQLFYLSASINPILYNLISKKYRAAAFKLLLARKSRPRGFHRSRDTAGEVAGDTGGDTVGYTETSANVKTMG

Biological target: hGPR38R (Homo sapiens, UniProt O43193)
Experiment: GPR38 FLIPR functional agonist assay
Assay type: cell-based
Parameters: expressed in transfected cells
Conditions: HEK-293 cells stably expressing the GPR38 receptor; agonist response, Fluo-4 fluorescence
Method: The potencies and efficacies of the compounds of this invention for GPR^38 can be determined by FLIPR assay performed on the human cloned receptor as described herein. It has been found, using the FLIPR functional assay, that compounds of formula (I) appear to be partial or full agonists of the GPR38 receptor.
GPR38FLIPR Functional Agonist Assay Protocol
HEK-293 cells stably expressing the GPR38 receptor were seeded (10,000 cells/well) into poly-D-lysine coated 384-well black-wall, clear-bottom microtitre plates (Becton Dickinson) 24 h prior to assay. On day of assay, cells were washed (×2) with 80 ul of assay buffer (Hanks Balanced Salts Solution (HBSS), 10 mM HEPES, 200 μM Ca^2+, 2.5 mM probenecid) using the EMBLA cell washer. After the final wash, buffer was aspirated to leave a residual volume of 30 ul on the cells. Cells were loaded with 1 μM (final) Fluo-4-AM fluorescent indicator dye (TefLabs) in assay buffer, (20 ul loading solution added to each well using the Multidrop). Plates were incubated for 1 h at 37° C., before being washed (×3) with 80 ul assay buffer using the EMBLA cell washer; 30 ul residual being left after the final wash. Plates were then assayed on a Fluorometric Imaging Plate Reader (FLIPR, Molecular Devices). Test compounds were prepared in assay buffer without probenecid, but containing 0.03% CHAPS. In the FLIPR, 10 ul of test compound was added to the cells and changes in fluorescence measured over a 2 min timeframe. Maximum change in fluorescence over baseline was used to determine agonist response and concentration response curves were constructed, using a 4-parameter logistic equation.
The following alternative procedure may also be used:
HEK-293 cells stably expressing the GPR38 receptor were seeded (30,000 cells/100 ul growth media/well) into poly-D-lysine coated 96-well black-wall, clear-bottom microtitre plates (Corning) 24 hours prior to assay. On the day of assay the cells were loaded with 2 μM (final) Fluo-4-AM fluorescent indicator dye (Molecular Probes) and 1 mM (final) probenicid in assay buffer (145 mM sodium chloride, 2.5 mM potassium chloride, 10 mM Hepes, 10 mM glucose, 1.2 mM magnesium chloride, 1.5 mM calcium chloride and 0.1% BSA) (50 ul loading solution added to each well). Plates were incubated for 1 hour at 25° C., before being washed 4 times with 100 ul assay buffer using the EMBLA cell washer; 150 ul residual being left after the final wash. The cells were then incubated at 25° C. for 20 minutes and the plates were then assayed on a Fluorometric Imaging Plate Reader (FLIPR, Molecular Devices). Test compounds were prepared in assay buffer without probenecid. In the FLIPR, 50 ul of test compound was added to the cells and changes in fluorescence measured over a 2 minute timeframe. Maximum change in fluorescence over baseline was used to determine agonist response and concentration response curves were constructed, using a 4-parameter logistic equation.

Compound | pEC50 in the FLIPR assay
C[C@@H]1CN(Cc2ccc(-c3cccnc3CN(C)C(=O)CCc3ccc(F)cc3)cc2)C[C@H](C)N1 [Example 3, N-{[3-(4{[(3R,5S)-3,5-Dimethyl-1-piperazinyl]methyl}phenyl)-2-pyridinyl]methyl}-3-(4-fluorophenyl)-N-methylpropanamide] | > 6.0
Cc1nc(C(=O)N2CCC(Cc3ccc(F)cc3)CC2)c(-c2ccc(CN3C[C@@H](C)N[C@@H](C)C3)cc2)s1 [Example 4, (3R,5S)-3,5-Dimethyl-1-({4-[4-({4-[(4-fluorophenyl)methyl]piperidin-1-yl}carbonyl)-2-methyl-1,3-thiazol-5-yl]phenyl}methyl)piperazine] | > 6.0
Cc1nc(CN(C)C(=O)CCc2ccc(F)cc2)c(-c2ccc(CN3C[C@@H](C)N[C@@H](C)C3)cc2)s1 [Example 6, N-{[5-(4-{[(3R,5S)-3,5-Dimethyl-1-piperazinyl]methyl}phenyl)-2-methyl-1,3-thiazol-4-yl]methyl}-3-(4-fluorophenyl)-N-methylpropanamide dihydrochloride] | > 6.0
Cc1nc(CN(C)C(=O)COc2ccc(F)cc2)c(-c2ccc(CN3C[C@@H](C)N[C@@H](C)C3)cc2)s1 [Example 7, N-{[5-(4-{[(3R,5S)-3,5-dimethyl-1-piperazinyl]methyl}phenyl)-2-methyl-1,3-thiazol-4-yl]methyl}-2-[(4-fluorophenyl)oxy]-N-methylacetamide] | > 6.0
C[C@@H]1CN(Cc2ccc(-c3cccnc3C(=O)N3CCC(Sc4ccc(Cl)cc4)CC3)cc2F)C[C@H](C)N1 [Example 13, (3R,5S)-1-({4-[2-({4-[(4-chlorophenyl)thio]-1-piperidinyl}carbonyl)-3-pyridinyl]-2-fluorophenyl}methyl)-3,5-dimethylpiperazine] | > 6.0
C[C@@H]1CN(Cc2ccc(-c3cccnc3C(=O)N3CCC(Nc4ccc(F)cc4)C3)cc2)C[C@H](C)N1 (stereo partly drawn) [Example 16, 1-{[3-(4-{[(3R,5S)-3,5-dimethyl-1-piperazinyl]methyl}phenyl)-2-pyridinyl]carbonyl}-N-(4-fluorophenyl)-3-pyrrolidinamine] | > 6.0
C[C@@H]1CN(Cc2ccc(-c3cccnc3C(=O)N3CC[C@H](Oc4ccc(F)cc4)C3)cc2)C[C@H](C)N1 [Example 18, (3R,5S)-1-({4[2-({(3S)-3-[(4-fluorophenyl)oxy]-1-pyrrolidinyl}carbonyl)-3-pyridinyl]phenyl}methyl)-3,5-dimethylpiperazine] | > 6.0
C[C@@H]1CN(Cc2ccc(-c3cccnc3C(=O)N3CCC(Nc4cccc(F)c4)C3)cc2)C[C@H](C)N1 (stereo partly drawn) [Example 33, 1-{[3-(4-{[(3R,5S)-3,5-dimethyl-1-piperazinyl]methyl}phenyl)-2-pyridinyl]carbonyl}-N-(3-fluorophenyl)-3-pyrrolidinamine] | > 6.0
C[C@@H]1CN(Cc2ccc(-c3cccnc3C(=O)N3CCC(Oc4cccc(F)c4)CC3)cc2)C[C@H](C)N1 [Example 34, (3R,5S)-1-({4-[2-({4-[(3-fluorophenyl)oxy]-1-piperidinyl}carbonyl)-3-pyridinyl]phenyl}methyl)-3,5-dimethylpiperazine] | > 6.0
C[C@@H]1CN(Cc2ccc(-c3cccnc3C(=O)N3CCC(Oc4cccc(F)c4)CC3)cc2F)C[C@H](C)N1 [Example 35, (3R,5S)-1-({2-fluoro-4-[2-({4-[(3-fluorophenyl)oxy]-1-piperidinyl}carbonyl)-3-pyridinyl]phenyl}methyl)-3,5-dimethylpiperazine] | > 6.0
